The list shows a part of the results.
Assays:
Test in all cases: log2 fold change, soluble protein after heating vs DMSO (PISA); higher = thermal stabilisation; K562 lysate, 10 uM; active = over 0.2 and 3.5 SD of the protein, either way, in both replicates (recomputed)
[1] = compound: C#Cc1cccc(Nc2ncnc3cc(OCCOC)c(OCCOC)cc23)c1 [erlotinib]
Method in brief: (§1)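 K562 pellets were dounce-homogenised in PBS pH 7.4 containing 1 mM MgCl2, and the crude extract, at 1 mg/mL protein, was exposed to 10 μM compound for 30 min. Aliquots were heated for 3 min across 48°C-58°C, pooled, brought to 0.5% NP-40 at 4°C and spun at 21,000xg for 90 min, with the supernatant taken as soluble protein. TMTpro 16plex LC-MS/MS with equalised channel sums quantified that protein. Values are log-two fold changes in thermal stability relative to solvent controls, taken from duplicates.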

Chains of the proteins cited; added tags and fusions are not shown. Lines headed by an entry give the natural chain unless they say otherwise; changes in a name come on top.
UniProt Q9H7M9, whole entry, looked up: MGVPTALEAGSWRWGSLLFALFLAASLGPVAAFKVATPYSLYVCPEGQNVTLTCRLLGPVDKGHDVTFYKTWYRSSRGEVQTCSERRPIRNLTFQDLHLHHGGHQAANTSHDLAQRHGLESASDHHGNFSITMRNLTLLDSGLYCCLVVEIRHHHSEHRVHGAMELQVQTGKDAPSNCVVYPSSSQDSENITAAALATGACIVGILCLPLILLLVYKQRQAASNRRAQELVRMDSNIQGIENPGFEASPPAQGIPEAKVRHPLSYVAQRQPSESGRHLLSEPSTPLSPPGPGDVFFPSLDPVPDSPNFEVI
UniProt Q8NEZ3: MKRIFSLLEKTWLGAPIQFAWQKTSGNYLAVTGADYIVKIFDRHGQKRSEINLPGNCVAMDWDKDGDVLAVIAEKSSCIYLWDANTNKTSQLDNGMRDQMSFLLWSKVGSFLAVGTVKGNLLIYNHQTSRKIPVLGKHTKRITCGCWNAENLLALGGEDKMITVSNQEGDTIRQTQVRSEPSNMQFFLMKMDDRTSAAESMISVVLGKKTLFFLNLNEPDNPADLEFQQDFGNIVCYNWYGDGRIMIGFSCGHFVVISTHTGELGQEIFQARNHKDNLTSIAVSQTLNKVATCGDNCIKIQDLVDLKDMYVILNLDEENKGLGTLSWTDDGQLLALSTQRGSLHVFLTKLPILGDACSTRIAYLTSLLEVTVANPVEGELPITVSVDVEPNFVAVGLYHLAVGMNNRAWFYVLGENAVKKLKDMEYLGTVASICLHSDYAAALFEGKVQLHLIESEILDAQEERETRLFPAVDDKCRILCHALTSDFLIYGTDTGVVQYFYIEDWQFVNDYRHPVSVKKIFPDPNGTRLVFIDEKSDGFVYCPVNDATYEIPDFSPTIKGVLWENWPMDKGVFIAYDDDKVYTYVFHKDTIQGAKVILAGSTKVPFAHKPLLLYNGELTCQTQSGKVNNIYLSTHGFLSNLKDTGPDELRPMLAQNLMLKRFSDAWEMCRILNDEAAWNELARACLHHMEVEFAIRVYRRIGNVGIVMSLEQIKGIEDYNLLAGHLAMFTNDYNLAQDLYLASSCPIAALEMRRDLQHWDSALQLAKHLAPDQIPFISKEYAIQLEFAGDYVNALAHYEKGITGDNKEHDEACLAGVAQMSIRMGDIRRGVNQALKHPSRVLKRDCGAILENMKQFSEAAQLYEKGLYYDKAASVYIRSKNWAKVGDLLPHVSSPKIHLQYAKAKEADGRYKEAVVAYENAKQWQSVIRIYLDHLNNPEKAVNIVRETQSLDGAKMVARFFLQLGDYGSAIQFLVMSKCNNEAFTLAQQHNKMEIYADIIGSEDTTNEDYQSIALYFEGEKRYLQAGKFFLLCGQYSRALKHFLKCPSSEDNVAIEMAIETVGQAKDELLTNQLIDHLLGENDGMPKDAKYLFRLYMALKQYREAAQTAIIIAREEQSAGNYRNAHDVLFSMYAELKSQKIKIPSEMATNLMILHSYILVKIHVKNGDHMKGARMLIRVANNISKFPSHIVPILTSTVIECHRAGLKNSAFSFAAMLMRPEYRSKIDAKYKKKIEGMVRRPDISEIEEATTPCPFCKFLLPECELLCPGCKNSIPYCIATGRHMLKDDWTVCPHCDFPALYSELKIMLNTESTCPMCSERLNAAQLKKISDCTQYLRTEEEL
UniProt Q9UID3: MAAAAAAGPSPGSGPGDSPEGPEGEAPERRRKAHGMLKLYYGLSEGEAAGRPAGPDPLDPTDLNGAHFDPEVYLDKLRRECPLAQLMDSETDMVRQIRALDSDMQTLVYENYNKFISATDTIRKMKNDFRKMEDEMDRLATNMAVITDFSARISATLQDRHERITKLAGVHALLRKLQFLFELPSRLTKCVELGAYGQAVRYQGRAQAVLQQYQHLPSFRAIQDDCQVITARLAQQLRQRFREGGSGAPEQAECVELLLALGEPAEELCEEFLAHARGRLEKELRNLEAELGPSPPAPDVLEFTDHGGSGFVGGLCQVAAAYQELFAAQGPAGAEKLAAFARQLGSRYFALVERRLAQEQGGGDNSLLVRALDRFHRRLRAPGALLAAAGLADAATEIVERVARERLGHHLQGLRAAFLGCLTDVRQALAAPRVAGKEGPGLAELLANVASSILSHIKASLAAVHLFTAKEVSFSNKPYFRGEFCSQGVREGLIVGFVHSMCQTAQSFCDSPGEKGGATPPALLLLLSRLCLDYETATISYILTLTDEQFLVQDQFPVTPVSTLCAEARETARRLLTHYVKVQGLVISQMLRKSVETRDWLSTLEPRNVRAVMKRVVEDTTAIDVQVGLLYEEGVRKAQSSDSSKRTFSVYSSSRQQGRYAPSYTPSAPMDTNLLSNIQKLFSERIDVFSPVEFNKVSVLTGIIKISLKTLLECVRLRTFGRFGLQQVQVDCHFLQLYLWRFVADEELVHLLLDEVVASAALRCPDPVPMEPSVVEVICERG
UniProt Q9Y6I7: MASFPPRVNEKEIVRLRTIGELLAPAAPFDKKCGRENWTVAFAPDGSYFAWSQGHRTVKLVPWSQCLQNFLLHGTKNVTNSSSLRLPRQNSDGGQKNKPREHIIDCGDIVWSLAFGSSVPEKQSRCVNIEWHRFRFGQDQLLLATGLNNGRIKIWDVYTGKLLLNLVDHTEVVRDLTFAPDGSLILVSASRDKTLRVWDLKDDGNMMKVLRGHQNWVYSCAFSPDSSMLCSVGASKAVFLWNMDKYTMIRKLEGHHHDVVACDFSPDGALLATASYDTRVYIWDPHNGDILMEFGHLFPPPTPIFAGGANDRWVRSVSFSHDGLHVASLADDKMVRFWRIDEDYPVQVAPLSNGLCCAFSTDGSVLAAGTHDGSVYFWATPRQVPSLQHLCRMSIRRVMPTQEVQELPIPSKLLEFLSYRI
UniProt Q9NZC7: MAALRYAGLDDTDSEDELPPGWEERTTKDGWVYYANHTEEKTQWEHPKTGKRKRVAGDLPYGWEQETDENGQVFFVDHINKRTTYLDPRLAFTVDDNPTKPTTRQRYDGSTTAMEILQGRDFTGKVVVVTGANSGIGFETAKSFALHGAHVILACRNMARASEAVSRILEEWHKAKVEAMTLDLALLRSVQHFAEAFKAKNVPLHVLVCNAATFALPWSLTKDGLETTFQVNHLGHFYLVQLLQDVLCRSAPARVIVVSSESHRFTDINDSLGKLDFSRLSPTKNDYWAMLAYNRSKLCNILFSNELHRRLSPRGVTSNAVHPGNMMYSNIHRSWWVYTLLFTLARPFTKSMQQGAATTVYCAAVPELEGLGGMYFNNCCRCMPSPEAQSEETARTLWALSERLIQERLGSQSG
UniProt Q9P2L0: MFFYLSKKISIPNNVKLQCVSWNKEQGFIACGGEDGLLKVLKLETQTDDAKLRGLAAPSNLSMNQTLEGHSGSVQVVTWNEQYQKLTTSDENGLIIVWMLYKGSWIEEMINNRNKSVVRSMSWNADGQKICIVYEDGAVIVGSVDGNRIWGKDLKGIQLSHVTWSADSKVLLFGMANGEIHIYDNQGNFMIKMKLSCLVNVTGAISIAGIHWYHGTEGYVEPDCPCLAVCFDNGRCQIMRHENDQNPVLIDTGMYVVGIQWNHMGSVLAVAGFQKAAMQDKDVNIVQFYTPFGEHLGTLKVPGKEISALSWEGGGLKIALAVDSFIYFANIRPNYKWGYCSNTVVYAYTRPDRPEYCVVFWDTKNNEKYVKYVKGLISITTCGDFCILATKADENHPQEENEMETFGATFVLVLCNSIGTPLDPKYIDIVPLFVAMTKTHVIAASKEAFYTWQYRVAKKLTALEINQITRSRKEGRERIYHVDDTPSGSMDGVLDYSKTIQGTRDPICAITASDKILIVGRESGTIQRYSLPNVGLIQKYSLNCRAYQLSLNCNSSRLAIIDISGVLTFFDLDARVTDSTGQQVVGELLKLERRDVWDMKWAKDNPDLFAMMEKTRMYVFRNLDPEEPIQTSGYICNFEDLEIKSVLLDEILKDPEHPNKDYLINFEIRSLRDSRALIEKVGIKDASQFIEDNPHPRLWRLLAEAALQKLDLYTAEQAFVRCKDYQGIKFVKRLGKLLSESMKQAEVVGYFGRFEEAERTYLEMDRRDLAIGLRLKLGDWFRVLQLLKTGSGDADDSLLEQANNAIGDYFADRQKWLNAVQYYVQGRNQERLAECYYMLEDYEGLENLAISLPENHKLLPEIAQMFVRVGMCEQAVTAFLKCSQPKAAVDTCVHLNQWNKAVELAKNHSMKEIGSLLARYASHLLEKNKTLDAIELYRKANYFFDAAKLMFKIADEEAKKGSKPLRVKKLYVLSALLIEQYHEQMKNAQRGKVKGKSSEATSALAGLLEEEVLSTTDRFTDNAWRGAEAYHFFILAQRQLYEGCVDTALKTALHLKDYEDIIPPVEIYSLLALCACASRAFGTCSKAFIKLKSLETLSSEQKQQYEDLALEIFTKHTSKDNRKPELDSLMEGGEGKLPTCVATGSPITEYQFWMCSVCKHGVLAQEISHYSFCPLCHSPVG
UniProt Q5MNZ9: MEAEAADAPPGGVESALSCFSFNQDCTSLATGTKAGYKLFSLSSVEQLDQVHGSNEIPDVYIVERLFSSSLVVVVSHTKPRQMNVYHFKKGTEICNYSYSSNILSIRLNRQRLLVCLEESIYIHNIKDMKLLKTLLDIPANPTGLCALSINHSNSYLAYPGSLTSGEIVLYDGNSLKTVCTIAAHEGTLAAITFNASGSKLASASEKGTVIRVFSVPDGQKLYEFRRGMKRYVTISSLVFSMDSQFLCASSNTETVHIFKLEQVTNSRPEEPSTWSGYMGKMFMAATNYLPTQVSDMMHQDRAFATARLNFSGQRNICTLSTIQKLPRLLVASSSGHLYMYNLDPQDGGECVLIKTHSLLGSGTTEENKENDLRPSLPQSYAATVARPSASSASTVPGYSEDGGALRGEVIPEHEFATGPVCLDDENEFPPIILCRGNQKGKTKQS
UniProt Q96EX3: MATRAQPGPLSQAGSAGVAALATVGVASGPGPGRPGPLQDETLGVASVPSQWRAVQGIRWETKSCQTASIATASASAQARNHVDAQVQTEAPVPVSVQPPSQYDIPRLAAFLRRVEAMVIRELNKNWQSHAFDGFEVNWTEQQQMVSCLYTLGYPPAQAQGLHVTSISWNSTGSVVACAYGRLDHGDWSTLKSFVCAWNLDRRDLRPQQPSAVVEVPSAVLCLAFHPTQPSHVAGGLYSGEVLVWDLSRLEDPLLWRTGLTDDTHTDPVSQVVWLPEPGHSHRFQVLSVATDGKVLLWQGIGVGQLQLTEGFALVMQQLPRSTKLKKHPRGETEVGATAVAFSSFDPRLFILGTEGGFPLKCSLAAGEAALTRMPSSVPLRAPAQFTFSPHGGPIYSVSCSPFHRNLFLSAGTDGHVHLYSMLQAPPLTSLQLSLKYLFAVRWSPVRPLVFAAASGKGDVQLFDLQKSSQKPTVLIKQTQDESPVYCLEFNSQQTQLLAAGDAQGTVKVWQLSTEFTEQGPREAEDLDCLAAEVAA
UniProt Q9Y4P8: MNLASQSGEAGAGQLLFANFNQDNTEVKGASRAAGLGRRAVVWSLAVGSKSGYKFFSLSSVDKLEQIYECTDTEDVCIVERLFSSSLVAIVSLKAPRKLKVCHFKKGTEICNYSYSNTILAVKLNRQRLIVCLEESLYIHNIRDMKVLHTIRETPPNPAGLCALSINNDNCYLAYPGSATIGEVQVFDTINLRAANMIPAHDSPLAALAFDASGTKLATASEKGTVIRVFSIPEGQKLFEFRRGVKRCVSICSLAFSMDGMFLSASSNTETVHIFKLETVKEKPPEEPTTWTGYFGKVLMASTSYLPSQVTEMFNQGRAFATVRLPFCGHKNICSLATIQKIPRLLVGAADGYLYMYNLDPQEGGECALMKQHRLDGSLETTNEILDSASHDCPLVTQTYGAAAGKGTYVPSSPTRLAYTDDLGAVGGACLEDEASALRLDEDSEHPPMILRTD
UniProt Q9UEU0: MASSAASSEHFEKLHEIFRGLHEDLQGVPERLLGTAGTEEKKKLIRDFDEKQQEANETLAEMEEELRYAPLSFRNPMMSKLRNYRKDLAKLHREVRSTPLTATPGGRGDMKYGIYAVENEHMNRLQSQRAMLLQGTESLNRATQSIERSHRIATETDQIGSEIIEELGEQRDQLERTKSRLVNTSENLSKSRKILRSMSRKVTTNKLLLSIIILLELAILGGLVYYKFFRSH

[2] = compound: C/C(=N\NC(=O)C1=CC(=CC=C1)S(=O)(=O)N2CCOCC2)/C3=C(C=CC(=C3)Cl)O
Method in brief: as §1

[3] = compound: C1=CC(=CC=C1C2=NC3=C(N2)C=C(C=C3)C(=O)N)OC4=CC=C(C=C4)Cl
Method in brief: as §1

[4] = compound: C1=CC2=C(C=CC(=C2)/C=C\3/C(=O)NC(=NCC4=CC=CS4)S3)N=C1
Method in brief: as §1

[5] = compound: C1=CC=C(C=C1)C2=NC(=C(N2)C3=CC=NC=C3)C4=CC(=C(C=C4)Cl)O
Method in brief: as §1

[6] = compound: C1=CC=C2C(=C1)C3=NNC4=CC=CC(=C43)C2=O
Method in brief: as §1

[7] = compound: C1COCCN1CCN2C3=CC=CC=C3N=C2NC(=O)C4=CC(=CC=C4)[N+](=O)[O-] [IRAK-1-4 Inhibitor I]
Method in brief: as §1

[8] = compound: CC(=O)c1cnc2ccc(-c3cc(Cl)c(O)c(Cl)c3)nc2c1N[C@H]1CC[C@H](CN(C)C)CC1
Method in brief: as §1

[9] = compound: CC(C)(C)Cn1c(N)nc2ccc(-c3[nH]c(C(C)(C)C)nc3-c3ccc(F)cc3)nc21 [ralimetinib]
Method in brief: as §1

[10] = compound: CC(C)(O)CC(=O)NCCn1ccc2ncnc(Nc3ccc(Oc4cccc(C(F)(F)F)c4)c(Cl)c3)c21
Method in brief: as §1

[11] = compound: CC(C)C1=C2N=C(C=C(N2N=C1)NCC3=CC=CC=C3)NCCCCCCN
Method in brief: as §1

[12] = compound: CC1=C(C2=C(C=C1)C(=O)C3=CC=CC=C3N2CCCN)C
Method in brief: as §1

[13] = compound: CC1=C(C=C(C=C1)NC(=O)C2=CC(=CC=C2)C(C)(C)C#N)NC3=CC4=C(C=C3)N=CN(C4=O)C
Method in brief: as §1

[14] = compound: CC1=C(C=C(C=C1)NC(=O)C2=CC(=CC=C2)N(C)C)NC(=O)C3=CC=C(C=C3)O
Method in brief: as §1

[15] = compound: CC1=CC=C(C=C1)SC2=C3C=C(SC3=CN=C2)C(=O)N
Method in brief: as §1

[16] = compound: C1=CC2=NC=CN=C2C=C1/C=C/3\C(=O)NC(=O)S3
Method in brief: as §1

[17] = compound: C1CCN(C1)C(=O)NC2=CC=CC(=C2)NC3=NC=C(C(=N3)NCCC4=CN=CN4)Br
Method in brief: as §1

[18] = compound: C1CN(CCC1(CC2=CC=C(C=C2)Cl)N)C3=NC=NC4=C3C=CN4
Method in brief: as §1

[19] = compound: C=CC(=O)N1CCC[C@@H](n2nc(-c3ccc(Oc4ccccc4)cc3)c3c(N)ncnc32)C1 [ibrutinib]
Method in brief: as §1

[20] = compound: CC1=C(C(CC(=O)N1)C2=CC=C(C=C2)C(F)(F)F)C(=O)NC3=C(C=C4C(=C3)C=NN4)F
Method in brief: as §1

Measured: log2 fold change

VPS29 (UniProt Q9UBQ0)
inactive: [1] -0.101 | [2] -0.075 | [3] 0.096 | [4] 0.115 | [5] 0.089 | [6] -0.189 | [7] 0.073 | [8] -0.062 | [9] 0.052 | [10] -0.294 | [11] 0.399 | [12] 0.067 | [13] -0.004 | [14] -0.11 | [15] -0.068

VSIR (UniProt Q9H7M9)
inactive: [1] -0.05 | [2] -0.048 | [3] 0.038 | [4] 0.097 | [16] -0.022 | [5] 0.054 | [6] -0.167 | [17] -0.023 | [18] -0.007 | [7] 0.008 | [19] 0.058 | [8] 0.036 | [9] -0.032 | [10] -0.033 | [11] 0.025 | [12] -0.017 | [13] -0.158 | [14] 0.021 | [15] -0.002

WDR19 (UniProt Q8NEZ3)
inactive: [16] 0.014 | [19] 0.054 | [8] -0.064 | [20] -0.012 | [13] 0.376 | [15] 0.174

VPS51 (UniProt Q9UID3)
inactive: [1] 0.034 | [2] -0.067 | [3] -0.015 | [4] 0.028 | [16] 0.004 | [5] 0.008 | [6] 0.017 | [17] 0 | [18] 0.023 | [7] 0.014 | [19] 0.038 | [8] 0.004 | [9] 0.017 | [10] -0.05 | [11] 0.018 | [20] 0.027 | [12] -0.007 | [13] -0.038 | [14] 0.018 | [15] 0.002

WSB1 (UniProt Q9Y6I7)
inactive: [5] 0.037 | [7] -0.093 | [9] 0.08 | [10] -0.006 | [12] -0.037 | [14] -0.028

WWOX (UniProt Q9NZC7)
inactive: [2] 0.017 | [4] 0.024 | [5] -0.079 | [6] 0.033 | [7] 0.005 | [9] 0.011 | [10] 0.051 | [12] -0.026 | [13] 0.232 | [14] 0.045

VLDLR (UniProt P98155)
inactive: [1] 0.064 | [3] 0.032 | [16] -0.021 | [5] 0.014 | [7] 0.108 | [19] -0.041 | [9] 0.079 | [10] -0.083 | [11] -0.027 | [13] 0.131 | [14] 0.012

WIZ isoform 3 (UniProt O95785)
inactive: [1] -0.007 | [2] -0.02 | [3] 0.046 | [4] -0.011 | [16] -0.085 | [5] -0.005 | [6] -0.001 | [17] -0.003 | [18] 0.029 | [7] 0.002 | [19] 0.049 | [8] -0.016 | [9] -0.027 | [10] 0 | [11] 0.021 | [20] -0.025 | [12] 0.012 | [13] -0.036 | [14] 0.006 | [15] 0.015

WDR13, A0A087X091
inactive: [2] -0.212 | [4] 0.094 | [6] -0.041

VPS35, A0A1W2PP10
inactive: [1] -0.028 | [3] 0.15 | [16] -0.122 | [19] -0.081 | [8] 0.001 | [11] -0.05 | [20] -0.061 | [13] 0.204 | [15] -0.133

VPS26A (UniProt O75436)
inactive: [1] -0.014 | [2] -0.017 | [3] 0.008 | [4] -0.002 | [16] 0.001 | [5] -0.019 | [6] 0.004 | [17] -0.001 | [18] 0.035 | [7] 0.005 | [19] -0.009 | [8] -0.016 | [9] 0.022 | [10] -0.016 | [11] -0.012 | [20] -0.003 | [12] -0.002 | [13] 0.023 | [14] -0.014 | [15] 0.001

WDR35 (UniProt Q9P2L0)
inactive: [5] -0.05 | [7] -0.264 | [9] 0.002 | [10] -0.37 | [14] 0.283

WIPI1 (UniProt Q5MNZ9)
inactive: [1] -0.025 | [3] -0.006 | [16] -0.016 | [5] -0.027 | [17] 0.035 | [18] -0.013 | [7] -0.007 | [19] 0.098 | [8] -0.062 | [9] 0.002 | [10] 0.019 | [11] -0.008 | [20] 0.1 | [12] -0.023 | [13] -0.005 | [14] -0.009 | [15] -0.033

WARS1 (UniProt G3V456)
inactive: [8] -0.009 | [15] 0.128

WDR34 (UniProt Q96EX3)
inactive: [1] 0.049 | [2] -0.025 | [3] 0.021 | [4] -0.001 | [16] -0.008 | [5] -0.025 | [6] 0.035 | [17] -0.019 | [18] -0.012 | [7] -0.027 | [19] 0.011 | [9] 0.155 | [10] -0.051 | [11] -0.049 | [20] -0.064 | [12] -0.057 | [13] -0.06 | [14] 0.017

VWA3B isoform 6 (UniProt Q502W6)
inactive: [1] -0.01 | [3] -0.009 | [16] -0.099 | [5] 0.037 | [17] -0.132 | [18] -0.035 | [7] -0.076 | [19] 0.162 | [8] -0.007 | [9] 0.083 | [10] 0.009 | [11] 0.033 | [20] -0.033 | [12] 0.037 | [13] -0.078 | [14] 0.009 | [15] -0.018

WARS1 (UniProt G3V5U1)
inactive: [16] -0.037 | [17] 0.444 | [18] 0.211 | [19] -0.042 | [8] -0.038 | [20] -0.217 | [15] -0.07

WIPI2 isoform 6 (UniProt Q9Y4P8)
inactive: [16] 0.079 | [19] -0.021

2 records drawn at random from the list so far, as already listed:
WDR13, A0A087X091
inactive: [2] -0.212 | [4] 0.094 | [6] -0.041

VPS29 (UniProt Q9UBQ0)
inactive: [1] -0.101 | [2] -0.075 | [3] 0.096 | [4] 0.115 | [5] 0.089 | [6] -0.189 | [7] 0.073 | [8] -0.062 | [9] 0.052 | [10] -0.294 | [11] 0.399 | [12] 0.067 | [13] -0.004 | [14] -0.11 | [15] -0.068

The list goes on.

VTI1B (UniProt Q9UEU0)
inactive: [1] -0.062 | [3] -0.011 | [16] 0.047 | [5] 0.054 | [17] 0.009 | [18] 0.046 | [7] -0.058 | [19] -0.038 | [8] -0.034 | [9] 0.052 | [10] -0.002 | [11] 0.043 | [20] 0.092 | [12] -0.064 | [13] 0.019 | [14] -0.025 | [15] -0.029

From the supplement of paper PMC10849652
